Reference: PubChem BioAssay AID686938 (Drosophila RNAi Screening Center, 2013)

Assay: 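Knock-downs reducing store-operated calcium influx in Drosophila cells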 (primary screen)
Cells: Drosophila S2R+ cells
Reagent: long dsRNA against Drosophila genes, about 0.25 µg dsRNA per well, roughly 10,000 cells
Timing: 5 days of knock-down before the calcium assay
Challenge: thapsigargin (SERCA pump blocker) to empty calcium stores; entry signal taken 4 min after adding it
Measured: 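Per-well fluo-4 fluorescence in two replicates, unnormalised, measured in resting cells and 4 min after store depletion by the SERCA blocker thapsigargin; ratio of the two present in few wells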
Reading the numbers: calcium entry signal: higher = stronger calcium signal after store depletion; entry to resting ratio: higher = more calcium entry relative to resting level; resting calcium signal: higher = higher resting calcium signal
Active means: 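Hit if the duplicate-averaged plate z-score for entry over resting signal is under −3; wells with weak total dye signal (Fmax z < −2) or more than 5 off-targets removed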
Meaning of the calls: active = strongly reduced calcium entry; inactive = no strong reduction
In all, the deposit lists about 23,000 reagents; below is a random part of those with a known target gene and a result. In the full data, 75 (0.33%) were called active. 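Raw plate signals without normalisation; calls rest on plate z-scores that were not deposited; ratio present for only 364 wells.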 Unmarked entries are inactive. Names joined by + are all predicted targets of the reagent. Reagent sequences are not shown. The record does not give: the dose of the treatment.

| Target gene | DRSC id | calcium entry signal, replicate 1 (fluorescence units) | calcium entry signal, replicate 2 (fluorescence units) | entry to resting ratio | resting calcium signal, replicate 1 (fluorescence units) | resting calcium signal, replicate 2 (fluorescence units) |
| --- | --- | --- | --- | --- | --- | --- |
| AOX3 | DRSC15955 | 3.27e7 | 4.62e7 | – | 1.45e7 | 1.88e7 |
| Nlp | DRSC16759 | 4.42e7 | 5.06e7 | – | 2.10e7 | 2.35e7 |
| CG5687 | DRSC08568 | 4.30e7 | 4.04e7 | – | 1.92e7 | 2.06e7 |
| Tsc1 | DRSC16890 | 3.37e7 | 3.74e7 | – | 1.72e7 | 1.73e7 |
| Mtpalpha | DRSC01994 | 4.66e7 | – | – | 2.12e7 | – |
| mahj | DRSC04053 | 2.89e7 | – | – | 1.48e7 | – |
| aph-1 | DRSC00547 | 3.97e7 | – | – | 1.97e7 | – |
| CG42656 | DRSC12472 | 3.37e7 | 4.16e7 | – | 1.72e7 | 2.42e7 |
| PGRP-SD | DRSC10856 | 3.31e7 | 4.35e7 | – | 1.54e7 | 2.08e7 |
| stan | DRSC05234 | 3.97e7 | 2.23e7 | – | 1.98e7 | 1.23e7 |
| stan | DRSC07697 | 3.55e7 | 3.97e7 | – | 1.70e7 | 1.83e7 |
| CG13947 | DRSC00365 | 4.33e7 | 5.02e7 | – | 1.89e7 | 2.03e7 |
| Fer3HCH | DRSC19892 | 2.99e7 | 3.62e7 | – | 1.49e7 | 1.76e7 |
| Myb | DRSC20260 | 3.02e7 | 3.06e7 | – | 1.56e7 | 1.50e7 |
| MED22 | DRSC18175 | 2.37e7 | 3.03e7 | 1.9 | 1.28e7 | 1.36e7 |
| CG3651 | DRSC03730 | 4.59e7 | 5.29e7 | – | 2.21e7 | 2.22e7 |
| mil | DRSC15696 | 2.69e7 | 4.60e7 | – | 1.39e7 | 1.95e7 |
| CG14676 | DRSC12262 | 4.53e7 | 3.84e7 | – | 2.29e7 | 1.84e7 |
| CG1632 | DRSC17558 | 3.21e7 | 3.54e7 | – | 1.60e7 | 1.71e7 |
| CG1632 | DRSC18110 | 3.52e7 | 5.51e7 | – | 1.80e7 | 2.47e7 |
| IntS14 | DRSC00668 | 4.51e7 | – | – | 2.45e7 | – |
| CG1737 | DRSC19771 | 4.68e7 | 2.41e7 | – | 2.26e7 | 1.39e7 |
| CG33116 | DRSC02045 | 2.85e7 | – | – | 1.58e7 | – |
| Nbr | DRSC03166 | 3.21e7 | – | – | 1.63e7 | – |
| Bace | DRSC02197 | 3.96e7 | 1.86e7 | – | 1.98e7 | 1.07e7 |
| CG2656 | DRSC12584 | 4.52e7 | 4.08e7 | – | 1.80e7 | 1.91e7 |
| CG30423 | DRSC04013 | 2.35e7 | 3.76e7 | – | 1.17e7 | 1.64e7 |
| Moe | DRSC18684 | 3.26e7 | 3.34e7 | – | 1.53e7 | 1.58e7 |
| Acp26Aa | DRSC01855 | 3.76e7 | 3.39e7 | – | 1.78e7 | 1.69e7 |
| CG32214 | DRSC09613 | 3.82e7 | 4.01e7 | – | 1.94e7 | 1.78e7 |
| Jhbp1 | DRSC12167 | 2.97e7 | 4.96e7 | – | 1.48e7 | 2.29e7 |
| CG4301 | DRSC19886 | 2.28e7 | 2.86e7 | – | 1.27e7 | 1.27e7 |
| CG18748 | DRSC15385 | 3.84e7 | 3.08e7 | – | 1.84e7 | 1.44e7 |
| veli | DRSC16276 | 3.60e7 | 6.11e7 | – | 1.72e7 | 2.55e7 |
| tws | DRSC12767 | 3.13e7 | 4.08e7 | – | 1.53e7 | 2.05e7 |
| tws | DRSC17092 | 2.76e7 | 4.48e7 | – | 1.42e7 | 2.36e7 |
| CG5255 | DRSC15754 | 3.25e7 | 6.62e7 | – | 1.68e7 | 6.92e7 |
| CG3894 | DRSC01762 | 2.85e7 | 3.80e7 | – | 1.33e7 | 1.59e7 |
| CG3894 | DRSC04012 | 2.34e7 | 3.49e7 | – | 1.22e7 | 1.63e7 |
| CG3894 | DRSC04429 | 4.46e7 | 2.22e7 | – | 2.44e7 | 1.13e7 |
| lama | DRSC11361 | 4.62e7 | 4.74e7 | – | 2.87e7 | 1.88e7 |
| epsilonCOP | DRSC02003 | 5.44e7 | – | – | 2.35e7 | – |
| Mccc2 | DRSC04987 | 3.62e7 | 5.20e7 | – | 1.99e7 | 2.40e7 |
| MED24 | DRSC10944 | 2.83e7 | 3.10e7 | – | 1.38e7 | 1.42e7 |
| Ref1 | DRSC12497 | 4.64e7 | 5.30e7 | – | 1.86e7 | 2.27e7 |
| Ref1 | DRSC22387 | 3.72e7 | 4.44e7 | – | 1.62e7 | 2.47e7 |
| CG6961 + CG18259 | DRSC19799 | 5.22e7 | 3.88e7 | – | 2.35e7 | 1.61e7 |
| CG6961 + CG18259 | DRSC20019 | 5.15e7 | 5.59e7 | – | 2.29e7 | 2.33e7 |
| spel1 | DRSC03617 | 5.18e7 | 3.72e7 | – | 2.31e7 | 1.66e7 |
| CG43124 | DRSC13867 | 3.66e7 | 3.72e7 | – | 1.90e7 | 1.92e7 |
| Hug | DRSC16969 | 3.92e7 | 3.87e7 | – | 2.02e7 | 2.01e7 |
| PLCXD | DRSC02427 | 3.66e7 | 6.32e7 | – | 1.73e7 | 2.83e7 |
| CG34289 | DRSC13625 | 3.35e7 | 2.97e7 | – | 1.37e7 | 1.56e7 |
| CG14820 | DRSC10191 | 3.16e7 | 4.56e7 | – | 1.48e7 | 2.01e7 |
| CG8568 | DRSC20113 | 2.80e7 | 3.19e7 | – | 1.31e7 | 1.36e7 |
| CG11999 | DRSC12185 | 3.31e7 | 2.65e7 | – | 1.80e7 | 1.42e7 |
| CG31524 | DRSC22014 | 2.09e7 | 3.09e7 | – | 1.10e7 | 1.51e7 |
| jdp | DRSC16975 | 3.18e7 | 4.77e7 | – | 1.53e7 | 2.21e7 |
| GstE2 | DRSC06672 | 6.62e7 | 6.01e7 | – | 2.44e7 | 2.54e7 |
| tgy | DRSC20045 | 5.30e7 | 4.08e7 | – | 2.56e7 | 1.84e7 |
| p38b | DRSC03586 | 4.59e7 | 2.64e7 | – | 2.07e7 | 1.37e7 |
| f | DRSC19174 | 2.26e7 | 2.04e7 | – | 1.19e7 | 1.22e7 |
| f | DRSC19516 | 3.61e7 | 3.21e7 | – | 1.82e7 | 1.47e7 |
| f | DRSC20331 | 3.15e7 | 2.85e7 | – | 1.71e7 | 1.50e7 |
| CG4218 | DRSC01939 | 5.12e7 | 3.17e7 | – | 2.29e7 | 1.50e7 |
| Cad86C | DRSC15587 | 3.81e7 | 3.63e7 | – | 1.90e7 | 1.92e7 |
| Cad86C | DRSC15611 | 3.13e7 | 4.15e7 | – | 1.62e7 | 1.97e7 |
| CG31870 | DRSC21681 | 3.90e7 | 4.50e7 | – | 2.17e7 | 1.93e7 |
| tkv | DRSC00860 | 3.90e7 | 3.30e7 | – | 1.72e7 | 1.54e7 |
| tkv | DRSC03623 | 4.25e7 | – | – | 2.15e7 | – |
| tkv | DRSC22606 | 3.50e7 | 4.74e7 | – | 1.75e7 | 2.29e7 |
| Coq2 | DRSC16516 | 3.12e7 | 2.67e7 | – | 1.48e7 | 1.29e7 |
| Coq2 | DRSC21366 | 2.81e7 | 2.94e7 | – | 1.53e7 | 1.43e7 |
| Syx16 | DRSC20507 | 2.62e7 | 3.15e7 | – | 1.33e7 | 1.45e7 |
| Mst85C | DRSC16746 | 4.59e7 | 4.46e7 | – | 1.91e7 | 2.10e7 |
